The AC50 is the concentration giving half of the maximal activity seen. High values mean weaker potency, low ones greater potency.

This is one part of the list. These are further read-outs of the screen, such as a control signal, another cell line or another target. No call is given for them. The list favours compounds with an active or inconclusive main result. Words in brackets tell the shape of the fitted curve; partial curves, single points and poor fits give uncertain potencies.

The nature of the test: qHTS Assay for Lipid Storage Modulators in Drosophila S3 Cells.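 On cell number change: cells counted by Cell Tracker Red CMTPX staining in the red channel.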 As to conditions: BODIPY lipid droplet fluorescence, 18-24 h; for cell number change: measured here: cell count max response, cells fed with added oleic acid. The procedure, abridged:
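Drosophila S3 cells loaded with oleic acid (400 uM, as added) and compounds at several concentrations; lipid droplets imaged by 488-nm laser-scanning cytometry, 500–530 nm intensity and object ratio to cell channel. Percent activity normalized to 20 uM Triacsin C.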

Where [1] appears, read: measured here: lipid fluorescence (Fed channel) AC50, cells fed with added oleic acid.
[2] abbreviates: measured here: cell number channel AC50, cells fed with added oleic acid.

As for `C=CCN=C1N[C@@H](c2cccc(C(F)(F)F)c2)C(C(=O)OC)=C(C)N1CC`, the cell number change was -0.299%. In addition, the AC50 under setting [1] is 20.6 µM [rising, single point].

`CCCCn1c(N)c(N(CC)C(=O)c2ccc(C#N)cc2)c(=O)[nH]c1=O`: the cell number change was found to be 9.24%. Further, the concentration at half-maximal activity (AC50) under setting [1] is 6.51 µM [falling, single point].

`O=C(O)CC/C(=N/NC(=O)c1cccs1)c1ccccc1`: the cell number change is 12.3%. Also, the half-maximal activity concentration (AC50) under setting [1] is 13 µM [rising, single point].

On to `CCCc1ccc2oc(C(=O)N3CCNC(=O)C3CC(=O)OC)c(C)c2c1` (stereo not given), for which the cell number change was -6.74%. For the same compound, the concentration at half-maximal activity (AC50) under setting [1] was 0.92 µM [falling, partial curve].

With `COC(=O)C1=C(C)NC(=S)NC1/C=C/c1ccccc1` (stereo not given), the cell number change was 28%. The AC50 under setting [1] is 25.9 µM [rising, partial curve].

As to `COc1ccc2c3c(c(=O)oc2c1)C1O[C@](CCCCN2C(=O)c4ccccc4C2=O)(Cc2c1ccc1ccccc21)O3`, the cell number change turned out to be 11%. For the same compound, under setting [2], the concentration at half-maximal activity (AC50) was 0.0168 µM [rising, partial curve, poor fit]. In addition, the AC50 under setting [1] was 5.31 µM [rising, single point].

With `O=C(CSc1nnnn1Cc1ccccc1)c1ccccc1`, the cell number change is -17.7%. Also, the AC50 under setting [1] was 14.6 µM [falling, partial curve, poor fit].

Consider `O=C(NCC1COc2ccccc2O1)c1ccc(Cl)c(S(=O)(=O)N2CCCC2)c1` (stereo not given), for which the cell number change is -48.4%. Besides, the AC50 under setting [2] is 7.31 µM [falling, partial curve]. For the same compound, under setting [1], the AC50 was 0.0058 µM [falling, full curve, poor fit].

With `CCOc1c(Cl)cc(Cl)cc1CNCCNCCO`, the cell number change was -21.5%. In addition, the AC50 under setting [2] is 0.103 µM [falling, full curve, poor fit].

Regarding `O=C(Nc1cc2c3c(c1)CC(=O)N3CCC2)c1ccccc1F`, the AC50 under setting [2] was 2.06 µM [rising, partial curve].

In the case of `CCc1ccc(NC(=O)C(=O)NNC(=O)c2cccs2)cc1`, the cell number change was 5.56%. In addition, the AC50 under setting [1] is 29.1 µM [falling, single point].

Take `O=C(OCC(=O)N1CCN(c2ccccc2)CC1)c1ccc(Cl)nc1`: the cell number change is -99.5%. For the same compound, the AC50 under setting [2] is 29.1 µM [falling, partial curve, poor fit]. Further, under setting [1], the AC50 was 6.51 µM [rising, full curve, poor fit].

Turning to `COc1ccc(OCC(O)CN(CC(O)COc2ccc(OC)cc2)c2cccc(O)c2)cc1` (stereo not given), the cell number change was -24.2%. Further, the concentration at half-maximal activity (AC50) under setting [1] was 0.13 µM [falling, full curve, poor fit].

Regarding `COc1ccc(OCc2cccc(C(=O)NN)c2)cc1`, the cell number change worked out at 28.1%. Moreover, under setting [1], the AC50 was 0.82 µM [falling, full curve].

For the compound `COc1cc(NS(=O)(=O)c2ccc(NC(=S)NC(=O)C3CCCC3)cc2)nc(OC)n1`, the cell number change is 6.42%. The AC50 under setting [1] was 25.9 µM [falling, single point].

Consider `COc1ccc(-n2nc(C(=O)NCC(=O)N3CCOCC3)c3ccccc3c2=O)cc1Cl`, for which the cell number change is -3.97%. For the same compound, the half-maximal activity concentration (AC50) under setting [1] was 0.58 µM [rising, single point].

Regarding `COCCOC(=O)C1=C(C)NC(=O)NC1c1c(OC)ncnc1OC` (stereo not given), the cell number change was -17.2%. Also, the half-maximal activity concentration (AC50) under setting [1] is 16.4 µM [falling, partial curve, poor fit].

In the case of `CCOC(=O)N1CCN(C(=O)CCn2c(=O)[nH]c3ccsc3c2=O)CC1`, the cell number change amounted to 34.4%. Besides, the AC50 under setting [2] is 7.31 µM [rising, partial curve, poor fit]. Further, the concentration at half-maximal activity (AC50) under setting [1] was 8.2 µM [rising, partial curve, poor fit].

With `COc1ccc(CN2C(=NC(=O)C3CCCCC3)SC3CS(=O)(=O)CC32)cc1` (stereo not given), the cell number change turned out to be 10.6%.

With `O=C(O)C1C2C=CC(O2)C1C(=O)Nc1ccc2c(c1)OCCO2` (stereo not given), the cell number change is 31.4%. Besides, under setting [2], the concentration at half-maximal activity (AC50) is 0.116 µM [rising, full curve].

For the compound `CCOC(=O)CN1CC23C=CC(O2)C(C(=O)Nc2ccc(F)cc2)C3C1=O` (stereo not given), the cell number change is -10.8%. Moreover, under setting [1], the AC50 was 0.82 µM [falling, full curve, poor fit].

As to `Cc1ccc2c(CN3CCN(S(=O)(=O)c4ccccc4C(F)(F)F)CC3)cc(=O)oc2c1`, the cell number change was -3.96%. For the same compound, the AC50 under setting [1] was 0.58 µM [rising, full curve].

Consider `CC(C)Oc1ccc(C(=O)OCC(=O)NC(=O)NC2CCCC2)cc1`, for which the cell number change was -41.5%. Moreover, the AC50 under setting [2] is 18.4 µM [falling, single point]. In addition, the concentration at half-maximal activity (AC50) under setting [1] was 4.11 µM [falling, single point].

As to `COc1ccccc1CC(=O)NCCc1ccccc1`, the cell number change is 19.2%. In addition, under setting [1], the AC50 is 29.1 µM [rising, single point].

In the case of `Cc1ccc(NC(=O)COC(=O)c2ccc(S(=O)(=O)NCc3ccco3)cc2)cc1`, the cell number change was determined as 7.39%. Besides, under setting [1], the half-maximal activity concentration (AC50) is 29.1 µM [falling, single point].

For `O=C(Nc1ccccc1)c1nnsc1S(=O)(=O)c1ccc(Cl)cc1`, the cell number change is -74.9%. In addition, the AC50 under setting [2] is 32.6 µM [falling, single point]. Besides, the AC50 under setting [1] is 29.1 µM [falling, single point].

For `Nc1ncnc2c1ncn2CCN1CCOCC1`, the cell number change was -10.6%. In addition, the AC50 under setting [1] is 0.164 µM [falling, full curve, poor fit].

On to `CCOc1ccc(S(=O)(=O)Nc2cc(SCC(=O)O)c(O)c3ccccc23)cc1`, for which the cell number change was -27.7%.

Turning to `Clc1ccc(Cn2cc(Br)cn2)cc1Cl`, the cell number change was -34.1%. Under setting [2], the AC50 was 32.6 µM [falling, single point]. Under setting [1], the AC50 is 6.51 µM [rising, single point].

Regarding `CC(=O)CCc1oc2ccc(NC(C)=O)cc2c1-c1ccc(C)o1`, the cell number change was -26.8%. Under setting [1], the AC50 was 10.3 µM [falling, partial curve, poor fit].

`COc1ccc(NC(=O)c2ccc3c(c2)N(C)CCS3)cc1`: the cell number change amounted to 32%. In addition, the AC50 under setting [2] is 1.64 µM [rising, partial curve, poor fit]. The AC50 under setting [1] is 29.1 µM [rising, single point].

`Cc1cc(C)c(S(=O)(=O)N2CCN(C(=O)c3ccc4c(c3)OCO4)CC2)c(C)c1`: the cell number change was -16.1%.

For the compound `O=C(CSc1ccc(-c2ccc(Br)cc2)nn1)N1CCOCC1`, the cell number change was -9.83%. For the same compound, the concentration at half-maximal activity (AC50) under setting [1] was 6.51 µM [falling, single point].

As for `O=C(CN1C(=O)NC2(CCCCCC2)C1=O)Nc1cccc(F)c1`, the cell number change was -20.8%. Moreover, the AC50 under setting [1] is 1.84 µM [falling, full curve, poor fit].

On to `Cc1onc(-c2c(Cl)cccc2Cl)c1C(=O)Nc1ccc(C(N)=O)cc1`, for which the cell number change is -7.5%.

With `COc1ccc2[nH]c3c(c2c1)CCN1C(=O)N([C@@H](C)C(=O)NCc2ccccc2)C(=O)[C@]31C`, the cell number change was -2.59%.

Consider `C=CCN(C(=O)CCC(=O)Nc1cc(C)on1)C(C(=O)NC(C)(C)C)c1cccc(OC)c1OC` (stereo not given), for which the cell number change was -0.613%.

As to `O=C(Nc1ccc(N2CCN(C(=O)c3ccccc3)CC2)c(Cl)c1)c1cccnc1`, the cell number change is -23.1%.

For `c1ccc(CNc2c3ccccc3nc3ccccc23)cc1`, the cell number change is -38.3%. Further, the half-maximal activity concentration (AC50) under setting [2] was 20.6 µM [falling, single point]. Besides, under setting [1], the AC50 is 7.31 µM [falling, partial curve].

As for `Cc1ccc(C(C(=O)NC(C)(C)C)N(CC2CCCO2)C(=O)CCC(=O)Nc2ccccn2)cc1` (stereo not given), the cell number change came out at 74.4%. The AC50 under setting [2] was 0.92 µM [rising, partial curve].

As for `CCOC(=O)C1CCN(C(=O)Cn2nc(C)n3c(cc4cc(F)ccc43)c2=O)CC1`, the cell number change was -10.7%. Further, the AC50 under setting [1] was 4.61 µM [falling, single point].

Consider `O=C(NCCN1CCOCC1)C12CC3CC(C1)CC(c1ccccc1)(C3)C2`, for which the cell number change worked out at 15.8%. Also, the AC50 under setting [2] is 0.82 µM [rising, single point]. The AC50 under setting [1] is 18.4 µM [rising, single point].

Regarding `Cc1ccc(S(=O)(=O)NC(C(=O)N2CCOCCOCCOCC2)c2ccccc2)cc1` (stereo not given), the cell number change was -10%.

With `CCCCCc1c(C)[nH]c2nc3ccccc3n2c1=O`, the cell number change came out at 9.33%.

On to `COc1ccc(N2CCN(C(=O)c3ccc(-n4nc(C)cc4C)cc3)CC2)cc1`, for which, under setting [1], the concentration at half-maximal activity (AC50) was 0.58 µM [rising, single point].

For `Cc1cccc(NC(=O)CSCC(=O)Nc2cc(S(=O)(=O)N3CCOCC3)ccc2N2CCCC2)c1`, the cell number change amounted to 7.49%.

In the case of `CC(=O)NC12CC3CC(C1)CC(C(=O)N1CCN(C(=O)c4ccco4)CC1)(C3)C2`, the cell number change stood at 6.22%. Moreover, under setting [2], the concentration at half-maximal activity (AC50) is 6.51 µM [falling, single point]. For the same compound, the AC50 under setting [1] was 7.31 µM [falling, partial curve, poor fit].

Regarding `C=CCN1C(=O)C(CC(=O)O)SC1=Nc1ccc(C(=O)O)cc1` (stereo not given), the cell number change is -102%. Besides, the AC50 under setting [2] was 23.1 µM [falling, single point].

In the case of `O=C(NN1C(=O)C2C3C=CC([C@@H]2C1=O)C31CC1)c1ccccc1` (stereo not given in full), the cell number change is -6.96%. Besides, the AC50 under setting [1] is 0.651 µM [rising, partial curve, poor fit].

For `CC1CCCN(c2ccc(/C=C(\C#N)c3nn(-c4ccccc4)c(N)c3C#N)cc2[N+](=O)[O-])C1` (stereo not given), the cell number change is -24.3%. Also, the AC50 under setting [1] is 29.1 µM [falling, single point].

On to `CCOc1cc2[nH]c(=O)n(CCCCC(=O)N3CCCCCC3)c(=O)c2cc1OCC`, for which the cell number change was -23.5%. For the same compound, the concentration at half-maximal activity (AC50) under setting [1] is 18.4 µM [falling, partial curve].

As to `COc1cc(C(=S)N2CCOCC2)cc(OC)c1OS(=O)(=O)c1ccc(C)cc1`, the cell number change was -14.7%. Under setting [1], the AC50 was 6.51 µM [falling, single point].

As to `COc1ccc(NC(=O)CCC(=O)c2cccs2)cc1S(=O)(=O)Nc1ccccc1Cl`, the cell number change was -7.66%.

On to `COc1cccc(-n2c(=O)n(Cc3ccccc3)c(=O)c3[nH]cnc32)c1C`, for which the cell number change stood at 41.3%. Besides, under setting [2], the concentration at half-maximal activity (AC50) is 29.1 µM [rising, single point].

For `Cc1nc2ccc(NC(=O)c3cncc(Br)c3)cc2s1`, the cell number change worked out at 5.16%. Besides, the half-maximal activity concentration (AC50) under setting [1] is 0.0651 µM [rising, full curve, poor fit].

With `CC(=O)c1ccc(S(=O)(=O)NCCC(=O)OC(C)C(=O)Nc2ccc(F)cc2)cc1` (stereo not given), the cell number change turned out to be 9.08%. Moreover, under setting [1], the AC50 is 32.6 µM [falling, single point].

As to `CCOC(=O)C1CCCN(C(=O)c2ccc([N+](=O)[O-])cc2)C1` (stereo not given), the AC50 under setting [2] is 0.731 µM [falling, partial curve, poor fit].

On to `CC(C)c1ccc(CCNC(=O)CSC(=S)N2CCCC2)cc1`, for which the cell number change is 2%.

On to `C=CCSc1nc2sc3c(c2c(=O)n1CC=C)CCc1ccccc1-3`, for which the cell number change was determined as 35.4%. Moreover, under setting [2], the AC50 is 7.31 µM [rising, partial curve]. For the same compound, under setting [1], the AC50 is 0.58 µM [falling, partial curve, poor fit].

The values are drawn from PubChem BioAssay AID2685 (National Center for Advancing Translational Sciences (NCATS), 2010).
